Measured values: US10221169B2, “Substituted aminothiazoles for the treatment of tuberculosis” (THE BROAD INSTITUTE, INC., priority 2013, dated 2019)

Tested on: M. tuberculosis
Test: MIC of control anti-tuberculosis antibiotics
Format: cell-based
Conditions: Mycobacterium tuberculosis, MIC used as reference for 10× MIC

## NNC(=O)c1ccncc1 [INH, isoniazid]
  MIC: 0.1 µg/mL
